In patent US12723243B2, “Archaeal pyrrolysyl tRNA synthetases for orthogonal use” (European Molecular Biology Laboratory, priority 2016, dated 2026):

What was measured:
HEK293T cells = test: Intracellular localization by PylRS immunostaining and tRNA^Pyl FISH in HEK293T cells; assay type: cell-based; settings: one day after transfection, anti-PylRS immunostaining / FISH
COS-7 cells = test: Intracellular localization by PylRS immunostaining and tRNA^Pyl FISH in COS-7 cells; assay type: cell-based; settings: COS-7, one day after transfection, anti-PylRS immunostaining / FISH

B1: PylRS^AF: mutant M. mazei pyrrolysyl tRNA synthetase comprising amino acid substitutions Y306A and Y384F, SEQ ID NO:2 (protein)
chain: MDKKPLNTLISATGLWMSRTGTIHKIKHHEVSRSKIYIEMACGDHLVVNNSRSSRTARALRHHKYRKTCKRCRVSDEDLNKFLTKANEDQTSVKVKVVSAPTRTKKAMPKSVARAPKPLENTEAAQAQPSGSKFSPAIPVSTQESVSVPASVSTSISSISTGATASALVKGNTNPITSMSAPVQASAPALTKSQTDRLEVLLNPKDEISLNSGKPFRELESELLSRRKKDLQQIYAEERENYLGKLEREITRFFVDRGFLEIKSPILIPLEYIERMGIDNDTELSKQIFRVDKNFCLRPMLAPNLANYLRKLDRALPDPIKIFEIGPCYRKESDGKEHLEEFTMLNFCQMGSGCTRENLESIITDFLNHLGIDFKIVGDSCMVFGDTLDVMHGDLELSSAVVGPIPLDREWGIDKPWIGAGFGLERLLKVKHDFKNIKRAARSESYYNGISTNL
modifications: Methanosarcina mazei PylRS Y306A, Y384F mutant; MUTAGEN 306 Y306A mutation; MUTAGEN 384 Y384F mutation
HEK293T cells
  intracellular localization: localized predominantly in the nucleus
COS-7 cells
  intracellular localization: localized predominantly in the nucleus
